Results taken from patent US9090549B2, “1,4-naphthoquinones derivatives and therapeutic use thereof” (CENTRE NATIONAL DE LA RECHERCHE SCIENTIFIQUE (C.N.R.S.), priority 2008, dated 2015).
Some of these results come from one statement about several compounds together. For some assays here: At least one compound was matched to its structure with a doubt left.

Experiments:
[1] = test system: P. berghei ANKA; assay: In vivo 4-day suppressive test in P. berghei-infected mice; design: species or system Plasmodium berghei; settings: daily dose of 30 mg/kg, intraperitoneal, 4-day test
Method: The in vivo tests in the mouse model were done according to a standard protocol (Peters et al Handbook of Animal Models of Infection; Academic Press, London, 1999; pp. 756-771). […] […] For administration, compounds were freshly prepared in 10% DMSO in sterile phosphate-buffered saline the day of use. Two hours post-infection mice received the first treatment by the intraperitoneal route. Mice were further treated on days +1-3. Blood films from tail blood were prepared on day +4, and parasitaemia was determined by microscopic examination of Giemsa-stained blood films. […] […] Mice were treated and levels of parasitemia determined as described.

[2] = target: Pf-GHA; assay: Pf-GHA growth inhibition, colorimetric NBT-based lactate dehydrogenase assay; assay type: cell-based, Plasmodium falciparum; settings: 72 h incubation; read-out: IC50 against Pf-GHA
Method: The IC50 values against Pf-GHA and MRC-5 were determined by using the less sensitive colorimetric NBT-based lactate dehydrogenase assay (Makler et al, Am. J. Trop. Med. Hyg. 1993, 48 (6), 739-741) based on redox-reactions.
In Vitro Antiparasitic Bioassays. The strain is maintained in RPMI-1640 medium supplemented with 0.37 mM hypoxanthine, 25 mM HEPES, 25 mM NaHCO3, and 10% O^+ human serum together with 2-4% washed human O^+ erythrocytes. All cultures and assays are conducted under an atmosphere of 4% CO2, 3% O2 and 93% N2. Assays are performed in 96-well microtiter plates, each well containing 10 μL of the watery compound dilutions together with 190 μL of the malaria parasite inoculum (1% parasitaemia, 2% HCT). After 72 h incubation, plates are frozen and stored at −20° C. After thawing, 20 μL of each well is transferred into another plate together with 100 μL Malstat reagent and 20 μL of 1/1 mixture of PES (phenazine ethosulfate, 0.1 mg/mL) and NBT (Nitro Blue Tetrazolium Grade III, 2 mg/mL). Change in colour is measured spectrophotometrically at 655 nm. The results are expressed as % reduction in parasitaemia compared to control wells. Compounds are treated at 5 concentrations (64-16-4-1 and 0.25 μM or μg/mL).

[3] = test system: P. falciparum multidrug-resistant strain Dd2; assay: Dd2 growth inhibition, 3H-hypoxanthine assay; assay type: cell-based, Plasmodium falciparum; settings: 48 h exposure then 24 h hypoxanthine; read-out: IC50 against Dd2
Method: The IC50 was tested by standard in vitro antiproliferation assays (Desjardins et al, 1979 Antimicrob. Agents Chemother 1979, 16, 710-718). Infected erythrocytes in ring stage (0.5% parasitemia, 2.5% hematocrit) in 96-well plates were exposed to the compounds for 48 h and then to radioactive hypoxanthine for 24 h. The amount of radioactivity in precipitable material served as an index of cell proliferation.

| SMILES | reduction in parasitaemia [1] | IC50 [2] [µM] | IC50 [3] [nM] |
| --- | --- | --- | --- |
| COc1ccc(CC2=C(C)C(=O)C3C=CC=CC3C2=O)cc1 (centres unmarked) [P_TM31, 2-Methyl-3-(4-methoxy-benzyl)-4a,8a-dihydro-[1,4]naphthoquinone] | 20.7-28.4% | – | – |
| CC1=C(C(=O)c2ccc(C(F)(F)F)cc2)C(=O)C2C=CC=CC2C1=O (centres unmarked) [P_TM33, 2-Methyl-3-(4-trifluoromethyl-benzoyl)-4a,8a-dihydro-[1,4]naphtho-quinone] | – | < 5 | – |
| CC1=C(Cc2ccc(O)cc2)C(=O)C2C=CC=CC2C1=O (centres unmarked) [P_TM36, 2-Methyl-3-(4-hydroxy-benzyl)-4a,8a-dihydro-[1,4]naphthoquinone] | 20.7-28.4% | – | – |
| CC1=C(Cc2c(F)c(F)c(F)c(F)c2F)C(=O)C2C=CC=CC2C1=O (centres unmarked) [P_TM57, 2-Methyl-3-pentafluorophenylmethyl-4a,8a-dihydro[1,4]naphtha-quinone] | – | < 5 | < 100 |
| COc1cc(CC2=C(C)C(=O)C3C=CC=CC3C2=O)cc(OC)c1OC (centres unmarked) [P_TM59, 2-Methyl-3-(3,4,5-trimethoxy-benzyl)-4a,8a-dihydro-[1,4]naphtha-quinone] | – | < 5 | < 100 |
| COc1ccc(CC2=C(C)C(=O)C3C=CC=CC3C2=O)c(OC)c1OC (centres unmarked) [P_TM61, 2-Methyl-3-(2,3,4-trimethoxy-benzyl)-4a,8a-dihydro-[1,4]naphtha-quinone] | – | – | < 100 |
